Data reported in PubChem BioAssay AID624161 (National Center for Advancing Translational Sciences (NCATS), 2012).
Inconclusive means that the source gave no clear call. Such entries were picked first, then a sample of the others. A potency beside an inconclusive call is a rough fit, not a confirmed value. Calls of active or inactive are those of the source. Calls follow the shape of the dose curve; as a rule, active = well fitted inhibition curve with a large enough effect; inconclusive = small, poorly fitted or top-dose-only effect; inactive = no such curve, though single readings can be large or run the other way.

Protein sequences, listed by entry. Tags and fused reporters are not part of them.
UniProt Q03164, whole entry, looked up: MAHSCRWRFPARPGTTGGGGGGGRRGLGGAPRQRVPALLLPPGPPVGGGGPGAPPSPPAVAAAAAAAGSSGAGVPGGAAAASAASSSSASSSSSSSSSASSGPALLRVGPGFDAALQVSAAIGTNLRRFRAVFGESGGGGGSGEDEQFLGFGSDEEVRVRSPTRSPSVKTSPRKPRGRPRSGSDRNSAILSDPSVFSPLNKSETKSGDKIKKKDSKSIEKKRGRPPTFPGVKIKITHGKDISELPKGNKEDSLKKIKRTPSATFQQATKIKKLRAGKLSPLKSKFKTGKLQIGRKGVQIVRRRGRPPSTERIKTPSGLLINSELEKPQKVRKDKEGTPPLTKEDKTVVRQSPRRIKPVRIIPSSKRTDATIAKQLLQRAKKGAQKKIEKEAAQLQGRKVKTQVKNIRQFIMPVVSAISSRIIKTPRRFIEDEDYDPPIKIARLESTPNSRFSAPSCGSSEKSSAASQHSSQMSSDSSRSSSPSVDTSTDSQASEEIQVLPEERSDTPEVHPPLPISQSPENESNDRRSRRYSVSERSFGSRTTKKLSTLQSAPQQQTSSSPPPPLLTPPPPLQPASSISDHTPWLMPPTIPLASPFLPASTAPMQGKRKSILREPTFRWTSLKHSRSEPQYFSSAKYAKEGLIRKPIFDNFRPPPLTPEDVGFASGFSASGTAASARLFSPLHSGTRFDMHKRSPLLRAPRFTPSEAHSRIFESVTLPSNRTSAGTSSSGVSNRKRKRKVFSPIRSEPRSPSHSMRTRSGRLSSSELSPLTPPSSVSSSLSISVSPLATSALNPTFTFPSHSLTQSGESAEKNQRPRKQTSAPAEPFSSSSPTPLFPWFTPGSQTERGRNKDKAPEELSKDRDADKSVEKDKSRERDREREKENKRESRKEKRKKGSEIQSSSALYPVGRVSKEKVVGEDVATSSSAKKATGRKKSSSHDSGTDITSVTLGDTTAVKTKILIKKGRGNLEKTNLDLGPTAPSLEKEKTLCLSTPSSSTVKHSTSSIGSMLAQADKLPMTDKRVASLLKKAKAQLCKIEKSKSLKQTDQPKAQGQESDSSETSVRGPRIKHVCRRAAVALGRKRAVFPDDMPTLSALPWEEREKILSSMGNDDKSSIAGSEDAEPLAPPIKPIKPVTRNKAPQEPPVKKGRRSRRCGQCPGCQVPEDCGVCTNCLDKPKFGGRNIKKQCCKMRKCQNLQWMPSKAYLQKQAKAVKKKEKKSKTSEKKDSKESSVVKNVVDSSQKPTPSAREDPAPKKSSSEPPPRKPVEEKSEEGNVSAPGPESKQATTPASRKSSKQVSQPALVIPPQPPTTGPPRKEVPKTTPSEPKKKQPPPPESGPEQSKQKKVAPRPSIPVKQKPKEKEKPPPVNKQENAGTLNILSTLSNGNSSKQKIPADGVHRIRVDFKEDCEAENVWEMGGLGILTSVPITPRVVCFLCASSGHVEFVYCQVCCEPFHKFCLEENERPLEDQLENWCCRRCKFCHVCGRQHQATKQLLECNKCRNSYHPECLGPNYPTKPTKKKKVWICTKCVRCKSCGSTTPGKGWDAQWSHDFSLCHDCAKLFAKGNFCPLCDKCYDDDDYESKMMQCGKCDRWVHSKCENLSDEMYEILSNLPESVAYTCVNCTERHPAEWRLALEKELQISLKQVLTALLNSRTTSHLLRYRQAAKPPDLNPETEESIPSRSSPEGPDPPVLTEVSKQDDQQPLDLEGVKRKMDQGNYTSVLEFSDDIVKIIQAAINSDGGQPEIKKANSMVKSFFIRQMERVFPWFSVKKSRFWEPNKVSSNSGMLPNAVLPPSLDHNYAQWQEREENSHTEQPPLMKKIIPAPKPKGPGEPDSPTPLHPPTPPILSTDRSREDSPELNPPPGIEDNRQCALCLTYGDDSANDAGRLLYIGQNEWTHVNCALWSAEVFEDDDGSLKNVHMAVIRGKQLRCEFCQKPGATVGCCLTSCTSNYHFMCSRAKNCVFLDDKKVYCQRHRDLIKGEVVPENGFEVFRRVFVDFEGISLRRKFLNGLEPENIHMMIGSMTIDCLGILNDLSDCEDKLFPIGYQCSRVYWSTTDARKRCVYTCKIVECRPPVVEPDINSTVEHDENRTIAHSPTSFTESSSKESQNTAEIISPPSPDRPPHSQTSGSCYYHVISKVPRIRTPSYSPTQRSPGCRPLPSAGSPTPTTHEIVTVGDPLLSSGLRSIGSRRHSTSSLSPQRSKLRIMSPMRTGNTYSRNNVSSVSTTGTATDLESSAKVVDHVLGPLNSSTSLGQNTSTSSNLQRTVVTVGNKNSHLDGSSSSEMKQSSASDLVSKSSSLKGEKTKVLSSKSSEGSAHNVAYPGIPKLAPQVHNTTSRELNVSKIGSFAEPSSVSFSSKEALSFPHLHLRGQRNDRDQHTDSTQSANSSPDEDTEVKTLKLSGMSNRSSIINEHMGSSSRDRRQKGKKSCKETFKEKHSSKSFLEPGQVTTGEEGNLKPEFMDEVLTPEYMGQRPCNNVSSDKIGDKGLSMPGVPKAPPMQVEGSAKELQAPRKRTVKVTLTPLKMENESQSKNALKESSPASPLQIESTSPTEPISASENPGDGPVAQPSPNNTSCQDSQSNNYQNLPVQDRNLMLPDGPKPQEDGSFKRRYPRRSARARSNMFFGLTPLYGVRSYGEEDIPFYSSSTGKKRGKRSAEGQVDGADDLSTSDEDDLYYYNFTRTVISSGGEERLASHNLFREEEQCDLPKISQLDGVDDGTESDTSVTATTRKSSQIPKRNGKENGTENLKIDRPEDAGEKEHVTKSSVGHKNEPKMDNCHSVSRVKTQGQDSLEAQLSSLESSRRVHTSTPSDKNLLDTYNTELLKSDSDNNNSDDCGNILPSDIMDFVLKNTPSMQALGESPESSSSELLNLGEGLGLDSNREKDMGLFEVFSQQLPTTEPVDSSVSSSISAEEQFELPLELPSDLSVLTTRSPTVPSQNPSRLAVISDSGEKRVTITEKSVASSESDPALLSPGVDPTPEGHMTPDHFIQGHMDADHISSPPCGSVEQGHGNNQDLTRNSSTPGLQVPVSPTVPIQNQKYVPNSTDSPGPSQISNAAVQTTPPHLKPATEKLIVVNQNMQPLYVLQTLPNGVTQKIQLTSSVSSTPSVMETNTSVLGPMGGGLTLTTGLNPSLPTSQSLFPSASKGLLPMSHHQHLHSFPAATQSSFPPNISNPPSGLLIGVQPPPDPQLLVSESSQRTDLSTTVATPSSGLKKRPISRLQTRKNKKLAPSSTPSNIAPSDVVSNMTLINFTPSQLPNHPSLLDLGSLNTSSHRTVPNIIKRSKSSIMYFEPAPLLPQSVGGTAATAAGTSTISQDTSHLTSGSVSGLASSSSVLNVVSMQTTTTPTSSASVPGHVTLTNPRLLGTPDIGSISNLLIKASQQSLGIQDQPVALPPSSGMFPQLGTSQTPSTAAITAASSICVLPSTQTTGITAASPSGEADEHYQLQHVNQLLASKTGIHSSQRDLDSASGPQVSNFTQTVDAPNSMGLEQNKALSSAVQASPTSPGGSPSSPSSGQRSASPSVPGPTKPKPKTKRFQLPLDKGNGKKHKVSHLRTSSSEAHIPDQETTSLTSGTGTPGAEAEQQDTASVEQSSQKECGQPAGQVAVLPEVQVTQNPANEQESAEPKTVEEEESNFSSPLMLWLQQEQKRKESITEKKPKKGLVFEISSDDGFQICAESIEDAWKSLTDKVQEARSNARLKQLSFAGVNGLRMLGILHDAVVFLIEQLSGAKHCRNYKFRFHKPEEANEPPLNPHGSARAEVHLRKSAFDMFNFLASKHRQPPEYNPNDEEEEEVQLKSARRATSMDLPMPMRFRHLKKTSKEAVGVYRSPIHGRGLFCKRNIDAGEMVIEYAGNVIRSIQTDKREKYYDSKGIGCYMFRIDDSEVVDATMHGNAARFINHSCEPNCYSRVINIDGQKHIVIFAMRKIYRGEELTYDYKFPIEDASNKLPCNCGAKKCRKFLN

The molecules below were run against Histone-lysine N-methyltransferase 2A (Homo sapiens) (UniProt Q03164) (assay: qHTS Fluorescence Polarization (FP) Assay for Inhibitors of MLL CXXC domain - DNA interaction: Texas Red FP). Conditions: MLL CXXC-DNA binding; series mostly up to 345 µM.
Source text: The MLL (Mixed Lineage Luekemia) gene is involved in chromosomal translocation that results in either acute lymphoid leukemia (ALL) or acute myeloid leukemia (AML). Chromasomal translocation of MLL gene is responsible for the fusion of N-terminal MLL to more than 60 different partner genes in frame. Many of the MLL partner genes contain transcription activation domains or function as transcriptional activators. Despite the heterogeneity of fusion partners, the N-terminus of MLL fusion proteins always consists of the N-terminal menin binding motif and the CXXC domain. The MLL-CXXC domain specifically recognizes unmethylated CpG sequences of the HOX-A gene. Disruption of the MLL-CXXC and HOX-A gene interaction leads to down regulation of HOX-A gene expression and may potentially reverse leukemogenesis. We have miniaturized and optimized an in-vitro assay to screen for inhibitors of the MLL-CXXC domain and HOX-A DNA interaction, which could have utility in MLL fusion leukemias.
This is a hit validation assay that tests this hits identified in the primary screen in this secondary screen, using a Texas Red FP as a read-out.
NIH Molecular Libraries Probe Production Network [MLPCN]
NIH Chemical Genomics Center [NCGC]
PI Name: John Bushweller, University of Virgina
The affinity purified MLL-CXXC domain, unlabeled HOX-A9 DNA strand, Texas Red (FLSN) labeled HOX-A9 DNA strand were kindly supplied by the laboratory of Dr. John Bushweller, University of Virginia. All reagents were stored in single use aliquots at -80C.
Assay buffer: 50 mM TRIS-HCl pH 7.5, 50 mM NaCl, 1 mM DTT. Add 0.05% BSA prior to reaction setup.
1.Dispense 1 ul of a 7 uM MLL-CXXC solution prepared in assay buffer into column 1-48.
2.Transfer 23 nl of compounds and unlabeled HOX-A9 per well.
3.Incubate for 5 minutes at ambient.
4.Dispense 1ul of a 50 nM TR-HOX-A9 solution prepared in assay buffer into columns 1-48
5.Centrifuge for 30 seconds at 1000 RPM.
6.Incubate for 30 minutes at ambient.
7.Read using the Envision reader fluorescent polarization protocol.
Also: nearly all actives have a fitted effect of over 75% in size.
Potency is read from the fitted curve at half-maximal effect.

Which Potency does the source give for Cc1ccc(/C=C2/C(=O)c3ccc(C(=O)O)cc3C2=O)o1 here?
Its Potency is inconclusive: 126 µM [inhibitor, partial curve].

Which Potency does the source give for CCN(CC)CCC[C@H](C)Nc1c2ccc(Cl)cc2nc2ccc(OC)cc12 here?
The Potency was inconclusive: 8.95 µM [inhibitor, full curve].

With O=C1c2c(O)ccc(O)c2C(=O)c2c(NCCNCCO)ccc(NCCNCCO)c21 as the molecule, how does the Potency read?
The Potency was active: 12.1 µM.

Which Potency does the source give for CCN1CCN(c2nc3c(C)cccn3c(=O)c2/C=C(\C#N)C(=O)NCCOC)CC1 here?
Its Potency is “inactive”.

With COc1ccc2occ(C(=O)c3ccc(N)cc3)c2c1 as the molecule, how does the Potency read?
Its Potency is “inactive”.

How did the Potency turn out when CO[C@H](C(=O)[C@@H](O)[C@@H](C)O)C1Cc2cc3cc(O[C@H]4C[C@@H](O[C@H]5C[C@@H](O)[C@H](O)[C@@H](C)O5)[C@@H](O)[C@@H](C)O4)c(C)c(O)c3c(O)c2C(=O)[C@H]1O[C@H]1C[C@@H](O[C@H]2C[C@@H](O[C@H]3C[C@](C)(O)[C@H](O)[C@@H](C)O3)[C@H](O)[C@@H](C)O2)[C@H](O)[C@@H](C)O1 (stereo not given in full) was run?
The Potency was “inactive”.

COc1cc(C=C2C(=O)c3ccccc3C2=O)ccc1O was tested. Which Potency did it give?
The Potency was inconclusive: 56.5 µM [inhibitor, partial curve, poor fit].

Which Potency does the source give for N#C/C(=C\c1cccs1)C(=O)c1ccccc1 here?
Its Potency is active: 113 µM.

Which Potency does the source give for O=c1[nH]c(S)c(/C=C2\C=Nc3ccccc32)s1 here?
The Potency was inconclusive: 20 µM [inhibitor, full curve].

CCOC(=O)/C(C#N)=C1\SS/C(=C(/C#N)C(=O)OCC)S1 was tested. Which Potency did it give?
Its Potency is active: 63.3 µM.

For Cc1[nH]n(-c2ccccc2)c(=O)c1N=Nc1cccc(C(=O)O)c1, which Potency is on record?
Its Potency is inconclusive: 10 µM [inhibitor, full curve].

How did the Potency turn out when Nc1nc2c(s1)CCc1c-2cnn1-c1ccccc1 was run?
The Potency was inconclusive: 0.797 µM [inhibitor, full curve].

Fc1ccccc1COc1ccc(Br)cc1CNCc1cccnc1 was tested. Which Potency did it give?
The Potency was inconclusive: 159 µM [inhibitor, partial curve].

With CC[C@@]1(O)C(=O)OCc2c1cc1n(c2=O)Cc2cc3c(CN(C)C)c(O)ccc3nc2-1 as the molecule, how does the Potency read?
The Potency was “inactive”.

With CC(=O)C1(O)Cc2c(O)c3c(c(O)c2C(OC2CC(N)C(O)C(C)O2)C1)C(=O)c1c(O)cccc1C3=O (stereo not given) as the molecule, how does the Potency read?
The Potency was active: 20 µM.

How did the Potency turn out when CN(C)C1=C(Cl)C(=O)N(c2ccc(Cl)c(Cl)c2)C1=O was run?
The Potency was “inactive”.

Which Potency does the source give for O=C1c2ccccc2-c2n[nH]c3cccc1c23 here?
The Potency was inconclusive: 8.95 µM [inhibitor, full curve].

Which Potency does the source give for O=C(O)c1cccc(-n2cccc2C=C2C(=O)c3ccccc3C2=O)c1 here?
The Potency was inconclusive: 35.6 µM [inhibitor, full curve].

Which Potency does the source give for O=C(O)c1ccc(NC2=C/C(=N/S(=O)(=O)c3ccccc3)c3ccccc3C2=O)cc1 here?
The Potency was inconclusive: 1.13 µM [inhibitor, full curve].

CCn1c(CSc2n[nH]c(N)n2)nc2cc(C(=O)O)ccc21 was tested. Which Potency did it give?
The Potency was active: 113 µM.

CC(=O)Oc1ccc2c(c1)Oc1cc(OC(C)=O)ccc1C21OC(=O)c2ccccc21 was tested. Which Potency did it give?
The Potency was “inactive”.

How did the Potency turn out when Cc1cc(-c2ccc(N=Nc3c(S(=O)(=O)O)cc4cc(S(=O)(=O)O)cc(N)c4c3O)c(C)c2)ccc1N=Nc1c(S(=O)(=O)O)cc2cc(S(=O)(=O)O)cc(N)c2c1O was run?
The Potency was active: 7.11 µM.

COc1ccc(/C=C2/SC(=S)NC2=O)cc1OCc1ccccc1 was tested. Which Potency did it give?
The Potency was “inactive”.

How did the Potency turn out when CCOC(=O)/C(=C/C=C1\Sc2cc(OCC)c(OCC)cc2N1CC)C(C)=O was run?
Its Potency is inconclusive: 71.1 µM [inhibitor, full curve].

Cc1nn(C)c(C)c1CN(C)C(=O)C1c2ccccc2Oc2ccccc21 was tested. Which Potency did it give?
Its Potency is inconclusive: 159 µM [inhibitor, partial curve, poor fit].

For COc1ccc(-c2nn(-c3ccccc3)cc2/C=C/C(=O)OCC(=O)Nc2ccc(C#N)cc2)cc1, which Potency is on record?
Its Potency is inconclusive: 11.3 µM [inhibitor, partial curve, poor fit].

CC1=NN(c2ccc(Cl)c(C(=O)O)c2)C(=O)/C1=C\c1ccc(-c2ccc(C(=O)O)cc2)o1 was tested. Which Potency did it give?
The Potency was “inactive”.

How did the Potency turn out when O=C1NN(c2ccccc2)C(=O)/C1=C/c1ccc(-c2ccc(C(=O)O)cc2)o1 was run?
The Potency was active: 142 µM.

For CCOC(=O)/C=C(\C)Sc1cc(O)c2ccccc2c1O, which Potency is on record?
The Potency was inconclusive: 4 µM [inhibitor, full curve].

With Cc1ccc(Sc2ccc(/C=C3/C(=O)NN(c4ccccc4)C3=O)o2)cc1 as the molecule, how does the Potency read?
Its Potency is “inactive”.

Which Potency does the source give for N#CC1(C#N)C(c2ccccc2)OC23CCCCCC2C1(C#N)C(=N)O3 (stereo not given) here?
The Potency was inconclusive: 89.5 µM [inhibitor, partial curve].

How did the Potency turn out when CC1(C)CC(=O)C(C(C2=C(O)CC(C)(C)CC2=O)c2ccc(O)c([N+](=O)[O-])c2)=C(O)C1 was run?
Its Potency is active: 63.3 µM.

CCn1c(=O)c2ccccc2n(Cc2ccc([N+](=O)[O-])cc2)c1=O was tested. Which Potency did it give?
The Potency was inconclusive: 35.6 µM [inhibitor, partial curve, poor fit].

With CC(/C=C1\NC(=S)NC1=O)=C\c1ccccc1 as the molecule, how does the Potency read?
The Potency was inconclusive: 179 µM [inhibitor, partial curve, poor fit].

With O=c1nc2c(O)cccn2c2c1c(=O)[nH]c1ccccc12 as the molecule, how does the Potency read?
The Potency was inconclusive: 7.97 µM [inhibitor, partial curve, poor fit].

Which Potency does the source give for CCCCC1OC2(C)OC(=N)C1(C#N)C(C#N)(C#N)C2c1ccccc1 (stereo not given) here?
The Potency was inconclusive: 79.7 µM [inhibitor, partial curve].

How did the Potency turn out when O=C1/C(=N\S(=O)(=O)c2cccs2)C([n+]2cccc(Cc3ccccc3)c2)=C([O-])c2ccccc21 was run?
Its Potency is inconclusive: 159 µM [inhibitor, partial curve].

Which Potency does the source give for CCCC(=O)OC[C@@H](OC(=O)CCC)[C@@H](OC(=O)CCC)[C@H](Cn1c2nc(=O)[nH]c(=O)c-2nc2cc(C)c(C)cc21)OC(=O)CCC here?
The Potency was inconclusive: 35.6 µM [inhibitor, partial curve, poor fit].

Which Potency does the source give for CC(=O)OCCn1c2nc(=O)[nH]c(=O)c-2nc2cc(C)c(C)cc21 here?
The Potency was “inactive”.

O=C(O)CCN1C(=O)/C(=C\c2cccc(OCC(=O)Nc3ccc(Cl)cc3)c2)SC1=S was tested. Which Potency did it give?
Its Potency is active: 142 µM.
